Data on 17 targets can be found in the supplement of paper PMC10849652.

Sequences of proteins named here, by UniProt entry; tags and fusion partners are left off. A change or cut given only in a name is not applied to a line headed by its entry.
UniProt Q9UBB5, whole entry, looked up: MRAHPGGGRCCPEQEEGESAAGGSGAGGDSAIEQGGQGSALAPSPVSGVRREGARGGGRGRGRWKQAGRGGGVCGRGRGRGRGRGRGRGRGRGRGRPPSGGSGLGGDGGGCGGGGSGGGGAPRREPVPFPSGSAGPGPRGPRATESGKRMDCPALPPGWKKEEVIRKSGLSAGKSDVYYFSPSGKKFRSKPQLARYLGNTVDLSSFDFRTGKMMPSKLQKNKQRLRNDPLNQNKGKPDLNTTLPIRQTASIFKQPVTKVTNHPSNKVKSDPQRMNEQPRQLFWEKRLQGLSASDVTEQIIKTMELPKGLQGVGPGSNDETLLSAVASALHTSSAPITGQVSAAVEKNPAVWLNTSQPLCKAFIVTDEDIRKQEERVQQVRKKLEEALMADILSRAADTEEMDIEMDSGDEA
UniProt Q96RN5: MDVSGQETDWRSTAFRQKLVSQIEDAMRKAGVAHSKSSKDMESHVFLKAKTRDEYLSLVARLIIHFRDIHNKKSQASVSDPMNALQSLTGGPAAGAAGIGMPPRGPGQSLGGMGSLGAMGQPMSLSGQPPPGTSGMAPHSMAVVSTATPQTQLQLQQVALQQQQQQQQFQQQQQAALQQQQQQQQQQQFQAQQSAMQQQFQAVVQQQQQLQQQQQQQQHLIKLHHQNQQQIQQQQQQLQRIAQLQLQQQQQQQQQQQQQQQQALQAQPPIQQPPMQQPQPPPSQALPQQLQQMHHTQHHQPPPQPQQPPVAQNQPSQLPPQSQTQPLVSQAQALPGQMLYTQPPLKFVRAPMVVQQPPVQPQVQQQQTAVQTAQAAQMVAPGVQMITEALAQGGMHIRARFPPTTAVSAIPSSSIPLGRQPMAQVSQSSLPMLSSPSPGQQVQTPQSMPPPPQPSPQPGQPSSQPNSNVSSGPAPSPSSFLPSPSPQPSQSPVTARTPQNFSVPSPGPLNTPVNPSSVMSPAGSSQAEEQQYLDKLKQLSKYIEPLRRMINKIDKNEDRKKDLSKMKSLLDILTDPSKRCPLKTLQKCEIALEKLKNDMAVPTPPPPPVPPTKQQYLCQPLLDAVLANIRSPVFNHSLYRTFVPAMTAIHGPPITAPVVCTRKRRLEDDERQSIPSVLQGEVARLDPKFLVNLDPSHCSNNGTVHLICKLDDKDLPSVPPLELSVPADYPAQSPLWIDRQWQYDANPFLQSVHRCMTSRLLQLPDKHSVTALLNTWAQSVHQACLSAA
UniProt Q8NI22: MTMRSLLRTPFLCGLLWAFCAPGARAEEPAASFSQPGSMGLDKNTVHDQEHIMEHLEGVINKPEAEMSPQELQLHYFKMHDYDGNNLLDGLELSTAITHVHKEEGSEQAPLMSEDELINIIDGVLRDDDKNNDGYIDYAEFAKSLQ
UniProt P49736, whole entry, looked up: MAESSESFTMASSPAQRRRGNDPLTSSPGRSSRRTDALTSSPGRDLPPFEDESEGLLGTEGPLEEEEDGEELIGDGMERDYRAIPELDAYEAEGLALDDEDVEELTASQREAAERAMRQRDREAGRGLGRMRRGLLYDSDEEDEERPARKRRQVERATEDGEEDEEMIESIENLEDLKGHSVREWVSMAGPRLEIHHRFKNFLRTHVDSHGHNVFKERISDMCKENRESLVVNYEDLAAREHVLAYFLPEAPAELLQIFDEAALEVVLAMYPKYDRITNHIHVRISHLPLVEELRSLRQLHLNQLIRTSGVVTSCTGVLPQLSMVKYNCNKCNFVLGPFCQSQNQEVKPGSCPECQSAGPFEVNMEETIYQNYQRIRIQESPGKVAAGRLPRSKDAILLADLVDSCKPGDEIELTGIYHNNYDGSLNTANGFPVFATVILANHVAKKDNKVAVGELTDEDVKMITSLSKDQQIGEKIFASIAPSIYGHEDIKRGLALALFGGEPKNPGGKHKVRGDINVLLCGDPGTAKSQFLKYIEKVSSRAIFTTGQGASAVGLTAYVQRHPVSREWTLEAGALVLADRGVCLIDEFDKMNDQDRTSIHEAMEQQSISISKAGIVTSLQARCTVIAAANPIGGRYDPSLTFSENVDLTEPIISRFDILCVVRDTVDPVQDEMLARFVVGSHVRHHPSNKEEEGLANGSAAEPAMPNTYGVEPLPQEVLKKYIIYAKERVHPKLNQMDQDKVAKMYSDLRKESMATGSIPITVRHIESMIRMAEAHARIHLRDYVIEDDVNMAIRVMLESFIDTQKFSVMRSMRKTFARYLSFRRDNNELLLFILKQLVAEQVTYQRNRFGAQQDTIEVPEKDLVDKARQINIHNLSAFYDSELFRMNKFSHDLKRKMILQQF
UniProt P51608, whole entry, looked up: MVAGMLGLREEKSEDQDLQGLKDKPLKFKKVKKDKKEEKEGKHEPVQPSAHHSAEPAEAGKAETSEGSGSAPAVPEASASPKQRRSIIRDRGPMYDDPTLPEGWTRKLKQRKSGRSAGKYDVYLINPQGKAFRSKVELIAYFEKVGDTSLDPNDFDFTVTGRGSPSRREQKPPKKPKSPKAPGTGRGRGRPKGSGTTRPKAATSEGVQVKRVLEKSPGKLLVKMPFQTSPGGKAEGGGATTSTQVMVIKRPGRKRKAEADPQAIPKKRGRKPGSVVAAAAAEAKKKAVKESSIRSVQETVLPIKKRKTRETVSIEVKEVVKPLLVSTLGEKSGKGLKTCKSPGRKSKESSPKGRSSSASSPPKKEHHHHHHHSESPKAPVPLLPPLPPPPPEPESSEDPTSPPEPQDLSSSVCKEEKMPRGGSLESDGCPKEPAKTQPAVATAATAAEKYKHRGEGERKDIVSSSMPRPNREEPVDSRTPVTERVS
UniProt Q6ZWT7: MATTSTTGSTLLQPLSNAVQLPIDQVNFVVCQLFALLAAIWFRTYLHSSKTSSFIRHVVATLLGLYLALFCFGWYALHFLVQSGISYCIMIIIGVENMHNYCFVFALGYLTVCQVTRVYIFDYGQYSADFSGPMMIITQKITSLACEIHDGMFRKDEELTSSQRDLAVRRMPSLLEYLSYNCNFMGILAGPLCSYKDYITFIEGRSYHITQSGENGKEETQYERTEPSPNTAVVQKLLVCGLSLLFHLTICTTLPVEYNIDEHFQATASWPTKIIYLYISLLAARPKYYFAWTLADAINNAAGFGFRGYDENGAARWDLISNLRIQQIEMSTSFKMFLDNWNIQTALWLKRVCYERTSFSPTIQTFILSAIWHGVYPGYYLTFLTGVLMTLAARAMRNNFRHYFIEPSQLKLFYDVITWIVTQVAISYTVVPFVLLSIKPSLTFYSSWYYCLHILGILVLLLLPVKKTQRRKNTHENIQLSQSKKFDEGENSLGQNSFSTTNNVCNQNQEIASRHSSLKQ
UniProt P33991: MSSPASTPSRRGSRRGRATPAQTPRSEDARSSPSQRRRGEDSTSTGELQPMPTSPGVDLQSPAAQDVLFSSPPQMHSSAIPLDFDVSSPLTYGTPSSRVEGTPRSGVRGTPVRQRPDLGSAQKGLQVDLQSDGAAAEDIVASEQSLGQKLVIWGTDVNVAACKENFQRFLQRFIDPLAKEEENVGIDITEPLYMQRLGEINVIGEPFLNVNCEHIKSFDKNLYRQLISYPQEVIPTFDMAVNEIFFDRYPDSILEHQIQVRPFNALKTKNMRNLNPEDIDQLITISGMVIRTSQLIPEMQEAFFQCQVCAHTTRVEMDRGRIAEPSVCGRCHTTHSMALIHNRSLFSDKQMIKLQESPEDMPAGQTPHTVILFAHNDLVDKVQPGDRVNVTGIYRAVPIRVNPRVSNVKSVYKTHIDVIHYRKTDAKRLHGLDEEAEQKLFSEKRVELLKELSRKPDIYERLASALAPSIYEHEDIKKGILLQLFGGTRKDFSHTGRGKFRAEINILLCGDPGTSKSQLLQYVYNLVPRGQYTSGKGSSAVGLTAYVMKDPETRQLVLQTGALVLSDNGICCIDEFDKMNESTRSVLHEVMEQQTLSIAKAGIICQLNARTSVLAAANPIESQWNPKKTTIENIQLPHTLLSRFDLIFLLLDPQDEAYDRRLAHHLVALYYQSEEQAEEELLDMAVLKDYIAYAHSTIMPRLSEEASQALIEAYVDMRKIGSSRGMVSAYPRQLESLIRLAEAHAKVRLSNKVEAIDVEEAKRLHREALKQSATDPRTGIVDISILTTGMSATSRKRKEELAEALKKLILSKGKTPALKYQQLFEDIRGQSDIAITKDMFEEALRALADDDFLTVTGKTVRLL
UniProt Q16626: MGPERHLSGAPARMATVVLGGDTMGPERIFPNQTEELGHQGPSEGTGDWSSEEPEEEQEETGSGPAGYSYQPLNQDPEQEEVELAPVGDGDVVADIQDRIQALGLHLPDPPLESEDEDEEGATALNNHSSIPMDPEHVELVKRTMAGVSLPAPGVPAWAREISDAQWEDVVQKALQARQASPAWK
UniProt P55081: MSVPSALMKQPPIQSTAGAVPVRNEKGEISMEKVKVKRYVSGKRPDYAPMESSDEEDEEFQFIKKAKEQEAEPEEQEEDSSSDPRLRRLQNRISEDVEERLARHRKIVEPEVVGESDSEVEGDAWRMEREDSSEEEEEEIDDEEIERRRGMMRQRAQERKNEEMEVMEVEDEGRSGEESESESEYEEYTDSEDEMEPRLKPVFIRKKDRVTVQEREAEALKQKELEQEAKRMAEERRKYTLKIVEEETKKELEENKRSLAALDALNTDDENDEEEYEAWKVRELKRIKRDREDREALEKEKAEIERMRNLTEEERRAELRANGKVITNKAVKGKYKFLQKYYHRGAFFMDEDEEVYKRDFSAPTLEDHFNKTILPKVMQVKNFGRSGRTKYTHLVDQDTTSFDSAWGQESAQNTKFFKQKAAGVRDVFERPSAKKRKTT
UniProt Q96HR3: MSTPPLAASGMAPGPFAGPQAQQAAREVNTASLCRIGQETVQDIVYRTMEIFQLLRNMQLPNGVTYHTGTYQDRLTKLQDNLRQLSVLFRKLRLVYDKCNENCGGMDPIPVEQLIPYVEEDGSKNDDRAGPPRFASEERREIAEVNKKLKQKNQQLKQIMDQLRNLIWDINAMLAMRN
UniProt Q86U44, whole entry, looked up: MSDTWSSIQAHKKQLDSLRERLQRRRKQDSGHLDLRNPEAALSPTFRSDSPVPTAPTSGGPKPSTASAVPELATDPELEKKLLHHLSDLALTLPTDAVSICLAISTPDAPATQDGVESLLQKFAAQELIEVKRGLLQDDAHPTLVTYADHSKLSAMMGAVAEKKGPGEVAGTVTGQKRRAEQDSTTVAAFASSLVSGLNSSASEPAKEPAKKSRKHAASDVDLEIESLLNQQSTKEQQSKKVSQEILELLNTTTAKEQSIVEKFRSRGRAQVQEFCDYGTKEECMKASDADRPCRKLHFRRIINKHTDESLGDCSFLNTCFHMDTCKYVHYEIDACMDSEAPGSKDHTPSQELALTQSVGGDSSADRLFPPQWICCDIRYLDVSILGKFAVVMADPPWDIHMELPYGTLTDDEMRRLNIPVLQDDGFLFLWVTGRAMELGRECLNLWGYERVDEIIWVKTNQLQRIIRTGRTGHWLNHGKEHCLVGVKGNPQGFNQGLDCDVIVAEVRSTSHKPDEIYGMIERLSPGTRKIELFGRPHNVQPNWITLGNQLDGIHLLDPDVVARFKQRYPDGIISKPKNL
UniProt Q9BUT9: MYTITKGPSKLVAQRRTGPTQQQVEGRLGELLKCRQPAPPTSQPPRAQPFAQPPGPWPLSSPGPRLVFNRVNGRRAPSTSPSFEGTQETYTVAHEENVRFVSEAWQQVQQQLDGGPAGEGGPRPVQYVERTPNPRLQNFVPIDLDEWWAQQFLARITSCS
UniProt Q14814: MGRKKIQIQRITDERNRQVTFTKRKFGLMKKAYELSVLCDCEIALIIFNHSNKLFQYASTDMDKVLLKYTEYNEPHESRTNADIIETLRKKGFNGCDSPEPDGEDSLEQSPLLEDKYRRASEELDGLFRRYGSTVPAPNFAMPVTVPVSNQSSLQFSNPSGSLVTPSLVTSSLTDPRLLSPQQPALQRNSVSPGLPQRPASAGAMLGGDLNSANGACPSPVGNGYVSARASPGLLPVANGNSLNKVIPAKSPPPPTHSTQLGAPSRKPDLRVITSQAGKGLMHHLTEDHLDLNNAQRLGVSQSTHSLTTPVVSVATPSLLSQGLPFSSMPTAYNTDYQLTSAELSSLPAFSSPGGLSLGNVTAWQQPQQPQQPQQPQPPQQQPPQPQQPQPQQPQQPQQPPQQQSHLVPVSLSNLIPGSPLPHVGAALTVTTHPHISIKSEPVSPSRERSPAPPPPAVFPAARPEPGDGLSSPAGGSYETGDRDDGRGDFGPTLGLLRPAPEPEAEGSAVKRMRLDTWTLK
UniProt Q14696: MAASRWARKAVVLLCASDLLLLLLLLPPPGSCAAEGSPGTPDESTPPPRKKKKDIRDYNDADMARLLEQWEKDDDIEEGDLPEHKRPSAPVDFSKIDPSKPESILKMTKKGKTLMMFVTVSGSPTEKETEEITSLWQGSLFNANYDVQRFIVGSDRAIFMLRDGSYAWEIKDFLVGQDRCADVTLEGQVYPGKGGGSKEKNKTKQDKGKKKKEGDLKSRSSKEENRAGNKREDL

This is one part of the list.

Compound in the assay: C[C@H](Nc1ncnc2nc[nH]c12)c1cc2cccc(Cl)c2c(=O)n1-c1ccccc1 [duvelisib]
As to the kind of experiment: log2 fold change, soluble protein after heating vs DMSO (PISA); higher = thermal stabilisation; K562 lysate, 10 uM; active = over 0.2 and 3.5 SD of the protein, either way, in both replicates (recomputed). The method, boiled down:
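K562 pellets were dounce-homogenised in PBS pH 7.4 containing 1 mM MgCl2, and the crude extract, at 1 mg/mL protein, was exposed to 10 μM compound for 30 min. Aliquots were heated for 3 min across 48°C-58°C, pooled, brought to 0.5% NP-40 at 4°C and spun at 21,000xg for 90 min, with the supernatant taken as soluble protein. TMTpro 16plex LC-MS/MS with equalised channel sums quantified that protein. Values are log-two fold changes in thermal stability relative to solvent controls, taken from duplicates.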
As to MBD2 (UniProt Q9UBB5), the log2 fold change was inactive: 0.02. MED15 (UniProt Q96RN5): the log2 fold change was inactive: 0.022.

MCFD2 (UniProt Q8NI22): the log2 fold change was inactive: 0.045. Take MCM2 (UniProt P49736): the log2 fold change is inactive: -0.005. MEAF6 isoform 3 (UniProt Q9HAF1): the log2 fold change is inactive: -0.021.

Turning to ME3 (UniProt Q16798), the log2 fold change is inactive: 0.137. Consider MECP2 isoform 2 (UniProt P51608), for which the log2 fold change was inactive: -0.01. Turning to MBOAT2 (UniProt Q6ZWT7), the log2 fold change is inactive: 0.009. With MCM4 (UniProt P33991), the log2 fold change was inactive: 0.008. MEA1 (UniProt Q16626): the log2 fold change was inactive: 0.089. With MFAP1 (UniProt P55081), the log2 fold change is inactive: -0.028. In the case of MED30 (UniProt Q96HR3), the log2 fold change was inactive: -0.091. Under METTL3 (UniProt Q86U44) stands inactive: -0.006; under MCRIP1 (UniProt I3L4Q0), inactive: 0.038. Take MCRIP2 (UniProt Q9BUT9): the log2 fold change was inactive: 0.066. Consider MEF2D (UniProt Q14814), for which the log2 fold change was inactive: -0.068. As to MESD (UniProt Q14696), the log2 fold change was inactive: 0.029.
